Laboratory results taken from article PMC2362351.
Results are given in words; binding and its absence hold for the method and conditions named. In cells and extracts the contact can be indirect. For some assays here: A result given as binding can be weak or reduced; the word gives no strength.

The chains behind the UniProt entries cited, without tags or fusion partners. Where a name states a change or a piece, a line headed by the entry shows the natural chain unless it says otherwise.
UniProt P12830: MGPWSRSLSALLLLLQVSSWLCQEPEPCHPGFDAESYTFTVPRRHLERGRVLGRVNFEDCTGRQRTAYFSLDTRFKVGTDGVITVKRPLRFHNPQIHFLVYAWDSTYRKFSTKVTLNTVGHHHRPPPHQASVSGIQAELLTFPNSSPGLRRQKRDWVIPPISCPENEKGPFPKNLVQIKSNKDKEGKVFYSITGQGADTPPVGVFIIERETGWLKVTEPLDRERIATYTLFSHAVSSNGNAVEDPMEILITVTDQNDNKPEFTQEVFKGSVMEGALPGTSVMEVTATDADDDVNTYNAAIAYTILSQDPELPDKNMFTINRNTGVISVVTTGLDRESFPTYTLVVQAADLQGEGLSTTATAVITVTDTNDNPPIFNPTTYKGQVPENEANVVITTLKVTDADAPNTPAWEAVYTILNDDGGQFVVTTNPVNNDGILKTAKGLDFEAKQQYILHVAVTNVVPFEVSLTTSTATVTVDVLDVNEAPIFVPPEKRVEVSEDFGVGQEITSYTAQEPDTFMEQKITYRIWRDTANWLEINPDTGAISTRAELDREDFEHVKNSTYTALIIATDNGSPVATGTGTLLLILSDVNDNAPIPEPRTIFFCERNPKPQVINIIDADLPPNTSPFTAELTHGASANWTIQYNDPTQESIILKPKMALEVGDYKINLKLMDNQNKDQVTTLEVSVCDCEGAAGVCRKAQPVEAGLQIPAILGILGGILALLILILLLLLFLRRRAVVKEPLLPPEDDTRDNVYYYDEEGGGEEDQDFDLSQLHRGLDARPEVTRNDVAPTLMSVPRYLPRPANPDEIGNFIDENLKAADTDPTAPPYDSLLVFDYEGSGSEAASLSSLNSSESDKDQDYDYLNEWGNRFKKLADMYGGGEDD

How the values were obtained:
[1] = target: T1, gamma-catenin (human (endogenous in HT29, Kato 3, MKN7, MKN45)) (UniProt P14923); assay: co-IP; HT29 cell extract (0.5% Triton X-100 buffer: 50 mM NaCl, 10 mM Pipes, MgCl2, 300 mM sucrose), endogenous proteins; precleared with mouse IgG; antibody on protein G sepharose 2 h at 4 C; washed with high stringency, high salt and low salt buffers; SDS-PAGE and Western blot
T1 sequence: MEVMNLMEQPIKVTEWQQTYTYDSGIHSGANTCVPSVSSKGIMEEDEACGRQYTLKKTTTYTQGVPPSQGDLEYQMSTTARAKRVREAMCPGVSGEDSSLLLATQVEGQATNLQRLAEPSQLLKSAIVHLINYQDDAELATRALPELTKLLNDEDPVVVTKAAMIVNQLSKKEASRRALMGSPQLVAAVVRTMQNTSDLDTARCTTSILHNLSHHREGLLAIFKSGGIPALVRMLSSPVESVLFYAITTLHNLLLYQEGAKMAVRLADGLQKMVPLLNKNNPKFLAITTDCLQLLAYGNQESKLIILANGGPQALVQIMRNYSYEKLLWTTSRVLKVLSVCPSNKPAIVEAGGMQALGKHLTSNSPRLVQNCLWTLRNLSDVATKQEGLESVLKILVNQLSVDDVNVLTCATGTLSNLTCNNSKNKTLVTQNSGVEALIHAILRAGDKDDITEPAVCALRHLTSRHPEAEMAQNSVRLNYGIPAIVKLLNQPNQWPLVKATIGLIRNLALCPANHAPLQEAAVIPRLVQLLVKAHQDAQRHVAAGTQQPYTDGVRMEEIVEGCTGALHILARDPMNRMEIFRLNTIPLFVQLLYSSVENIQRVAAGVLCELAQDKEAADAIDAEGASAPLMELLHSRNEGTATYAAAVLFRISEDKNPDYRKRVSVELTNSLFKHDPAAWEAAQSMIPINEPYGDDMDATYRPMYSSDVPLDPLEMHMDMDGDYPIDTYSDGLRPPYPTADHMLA

[2] = target: T1, gamma-catenin (human (endogenous in HT29, Kato 3, MKN7, MKN45)); assay: co-IP; MKN45 cell extract, endogenous proteins; same procedure (Triton X-100 lysis, protein G sepharose, high stringency, high salt and low salt washes, Western blot)
[3] = target: T2, p120ctn (human (endogenous in Kato 3, MKN7, MKN45)) (UniProt O60716); assay: as above
T2 sequence: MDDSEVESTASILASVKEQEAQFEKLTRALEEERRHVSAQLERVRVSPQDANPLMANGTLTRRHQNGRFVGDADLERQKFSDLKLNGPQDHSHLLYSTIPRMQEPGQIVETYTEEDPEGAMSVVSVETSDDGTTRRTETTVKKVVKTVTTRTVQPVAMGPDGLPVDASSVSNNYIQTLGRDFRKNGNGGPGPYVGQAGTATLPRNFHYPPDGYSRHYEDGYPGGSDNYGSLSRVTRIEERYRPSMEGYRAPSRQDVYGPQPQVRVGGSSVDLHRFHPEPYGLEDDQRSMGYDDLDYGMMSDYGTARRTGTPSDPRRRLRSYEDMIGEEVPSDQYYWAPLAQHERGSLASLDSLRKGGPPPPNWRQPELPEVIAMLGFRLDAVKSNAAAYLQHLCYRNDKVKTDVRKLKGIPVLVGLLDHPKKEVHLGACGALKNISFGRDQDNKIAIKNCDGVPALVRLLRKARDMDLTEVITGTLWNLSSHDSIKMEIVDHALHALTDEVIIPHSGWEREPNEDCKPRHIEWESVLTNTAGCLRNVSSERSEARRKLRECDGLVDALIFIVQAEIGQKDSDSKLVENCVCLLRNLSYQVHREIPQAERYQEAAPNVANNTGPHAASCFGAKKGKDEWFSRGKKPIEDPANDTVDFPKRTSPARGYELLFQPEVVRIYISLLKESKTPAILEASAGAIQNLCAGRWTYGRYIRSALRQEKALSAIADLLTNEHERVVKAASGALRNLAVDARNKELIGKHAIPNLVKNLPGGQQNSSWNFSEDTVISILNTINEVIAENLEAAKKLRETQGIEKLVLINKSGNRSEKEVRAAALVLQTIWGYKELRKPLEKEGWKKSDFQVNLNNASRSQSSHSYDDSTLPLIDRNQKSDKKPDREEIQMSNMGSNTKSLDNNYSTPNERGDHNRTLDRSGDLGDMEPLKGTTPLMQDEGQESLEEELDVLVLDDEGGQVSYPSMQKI

[4] = target: E-cadherin (human (endogenous in HT29, HSC39, MKN7)); assay: co-IP; MKN7 cell extract, endogenous proteins; same procedure (Triton X-100 lysis, protein G sepharose, high stringency, high salt and low salt washes, Western blot)

alpha-catenin was tested, and the binding [1] was “binds”.

“E-cadherin of MKN45 (mutant) (from UniProt P12830)” was tested, and the binding [2] was “binds” and the binding [3] was “no binding”.

In the case of “E-cadherin (human (endogenous in HT29, HSC39, MKN7))”, the binding [1] is reported as “binds”.

B1: gamma-catenin (protein, UniProt P14923 1-745)
chain: MEVMNLMEQPIKVTEWQQTYTYDSGIHSGANTCVPSVSSKGIMEEDEACGRQYTLKKTTTYTQGVPPSQGDLEYQMSTTARAKRVREAMCPGVSGEDSSLLLATQVEGQATNLQRLAEPSQLLKSAIVHLINYQDDAELATRALPELTKLLNDEDPVVVTKAAMIVNQLSKKEASRRALMGSPQLVAAVVRTMQNTSDLDTARCTTSILHNLSHHREGLLAIFKSGGIPALVRMLSSPVESVLFYAITTLHNLLLYQEGAKMAVRLADGLQKMVPLLNKNNPKFLAITTDCLQLLAYGNQESKLIILANGGPQALVQIMRNYSYEKLLWTTSRVLKVLSVCPSNKPAIVEAGGMQALGKHLTSNSPRLVQNCLWTLRNLSDVATKQEGLESVLKILVNQLSVDDVNVLTCATGTLSNLTCNNSKNKTLVTQNSGVEALIHAILRAGDKDDITEPAVCALRHLTSRHPEAEMAQNSVRLNYGIPAIVKLLNQPNQWPLVKATIGLIRNLALCPANHAPLQEAAVIPRLVQLLVKAHQDAQRHVAAGTQQPYTDGVRMEEIVEGCTGALHILARDPMNRMEIFRLNTIPLFVQLLYSSVENIQRVAAGVLCELAQDKEAADAIDAEGASAPLMELLHSRNEGTATYAAAVLFRISEDKNPDYRKRVSVELTNSLFKHDPAAWEAAQSMIPINEPYGDDMDATYRPMYSSDVPLDPLEMHMDMDGDYPIDTYSDGLRPPYPTADHMLA
For B1, the binding [4] was “binds”.
